# From paper PMC7862700
# The chains behind the UniProt entries cited, without tags or fusion partners. Where a name states a change or a piece, a line headed by the entry shows the natural chain unless it says otherwise.
# UniProt P41161: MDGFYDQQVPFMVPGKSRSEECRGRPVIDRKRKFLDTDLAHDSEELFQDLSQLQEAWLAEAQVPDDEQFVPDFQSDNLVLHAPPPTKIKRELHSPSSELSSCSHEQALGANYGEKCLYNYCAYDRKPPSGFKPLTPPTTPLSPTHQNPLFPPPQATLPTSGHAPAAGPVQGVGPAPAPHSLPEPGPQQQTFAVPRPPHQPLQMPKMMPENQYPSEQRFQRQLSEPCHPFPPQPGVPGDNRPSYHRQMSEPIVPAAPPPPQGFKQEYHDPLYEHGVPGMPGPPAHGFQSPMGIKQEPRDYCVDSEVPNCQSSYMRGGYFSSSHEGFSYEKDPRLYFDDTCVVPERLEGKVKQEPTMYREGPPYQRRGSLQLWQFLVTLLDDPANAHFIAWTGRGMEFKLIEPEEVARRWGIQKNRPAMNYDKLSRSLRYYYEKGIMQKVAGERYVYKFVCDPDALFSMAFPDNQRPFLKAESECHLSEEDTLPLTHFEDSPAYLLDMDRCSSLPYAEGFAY
# UniProt Q99607: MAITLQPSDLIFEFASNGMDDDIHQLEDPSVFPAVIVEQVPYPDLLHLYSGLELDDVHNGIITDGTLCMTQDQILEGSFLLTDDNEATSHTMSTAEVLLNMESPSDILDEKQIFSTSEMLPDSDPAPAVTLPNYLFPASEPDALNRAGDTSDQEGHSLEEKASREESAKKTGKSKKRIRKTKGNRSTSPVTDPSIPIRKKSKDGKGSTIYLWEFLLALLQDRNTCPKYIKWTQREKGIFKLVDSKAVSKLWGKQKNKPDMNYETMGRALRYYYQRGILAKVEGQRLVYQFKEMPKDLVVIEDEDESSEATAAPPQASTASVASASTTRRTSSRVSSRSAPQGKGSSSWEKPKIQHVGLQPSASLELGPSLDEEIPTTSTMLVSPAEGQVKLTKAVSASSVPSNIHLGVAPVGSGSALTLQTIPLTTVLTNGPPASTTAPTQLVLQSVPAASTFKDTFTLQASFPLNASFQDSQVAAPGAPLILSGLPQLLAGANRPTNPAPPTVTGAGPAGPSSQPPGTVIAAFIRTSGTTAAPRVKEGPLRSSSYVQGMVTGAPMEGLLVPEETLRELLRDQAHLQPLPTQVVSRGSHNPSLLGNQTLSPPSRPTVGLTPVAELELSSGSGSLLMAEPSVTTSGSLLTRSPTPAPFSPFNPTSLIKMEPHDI
# UniProt Q01892: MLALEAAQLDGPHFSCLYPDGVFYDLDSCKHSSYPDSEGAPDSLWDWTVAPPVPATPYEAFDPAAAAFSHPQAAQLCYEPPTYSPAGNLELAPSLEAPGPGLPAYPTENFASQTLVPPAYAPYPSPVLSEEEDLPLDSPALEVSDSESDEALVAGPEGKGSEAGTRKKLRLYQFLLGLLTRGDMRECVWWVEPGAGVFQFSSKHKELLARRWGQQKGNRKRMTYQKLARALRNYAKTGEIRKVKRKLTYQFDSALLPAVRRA
# This is a selection; strong and weak results do not stand in their true shares. At the low end of the ranking the order means little.
# Key:
# Assay in all cases: DAPPL (digital affinity profiling via proximity ligation, sequencing)
# Details in all cases: 10 mM Tris-HCl pH 7.5, 50 mM NaCl, 1 mM DTT, 4% glycerol, room temperature, 30 min; GST-TFs on glutathione beads, 16-mer random dsDNA library, 0.1% …; high values mean tight binding; double strand, one strand shown; scale: fold enrichment (6-mer frequency, TF over GST control)
# FLI1 = biological target: T1, FLI1 (UniProt Q01543)
# T1 sequence: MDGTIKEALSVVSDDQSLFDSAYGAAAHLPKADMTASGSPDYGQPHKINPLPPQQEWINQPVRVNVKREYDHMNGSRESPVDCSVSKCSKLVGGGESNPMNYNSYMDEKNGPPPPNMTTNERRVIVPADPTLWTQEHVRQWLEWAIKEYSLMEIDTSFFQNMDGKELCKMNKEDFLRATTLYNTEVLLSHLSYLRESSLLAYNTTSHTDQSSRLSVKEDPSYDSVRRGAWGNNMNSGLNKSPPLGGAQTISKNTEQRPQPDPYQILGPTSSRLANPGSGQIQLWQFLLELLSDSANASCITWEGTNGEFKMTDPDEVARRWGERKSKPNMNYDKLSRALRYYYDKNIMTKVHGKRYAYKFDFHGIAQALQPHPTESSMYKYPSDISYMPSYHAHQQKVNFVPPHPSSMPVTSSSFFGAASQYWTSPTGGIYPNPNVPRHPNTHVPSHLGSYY
# ETV5 = ETV5 (UniProt P41161)
# ELF4 = ELF4 (UniProt Q99607)
# ETV2 = biological target: T2, ETV2 (UniProt O00321)
# T2 sequence: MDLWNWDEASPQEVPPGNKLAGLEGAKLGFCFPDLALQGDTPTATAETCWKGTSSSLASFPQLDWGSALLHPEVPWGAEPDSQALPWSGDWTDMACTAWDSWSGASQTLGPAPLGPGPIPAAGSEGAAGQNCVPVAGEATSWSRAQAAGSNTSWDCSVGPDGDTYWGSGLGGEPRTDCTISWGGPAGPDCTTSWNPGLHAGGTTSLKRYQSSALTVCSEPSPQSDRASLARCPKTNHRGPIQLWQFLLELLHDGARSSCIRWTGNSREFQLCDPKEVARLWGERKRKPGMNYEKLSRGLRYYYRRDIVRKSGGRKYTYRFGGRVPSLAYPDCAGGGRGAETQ
# EHF = biological target: T3, EHF (UniProt Q9NZC4)
# T3 sequence: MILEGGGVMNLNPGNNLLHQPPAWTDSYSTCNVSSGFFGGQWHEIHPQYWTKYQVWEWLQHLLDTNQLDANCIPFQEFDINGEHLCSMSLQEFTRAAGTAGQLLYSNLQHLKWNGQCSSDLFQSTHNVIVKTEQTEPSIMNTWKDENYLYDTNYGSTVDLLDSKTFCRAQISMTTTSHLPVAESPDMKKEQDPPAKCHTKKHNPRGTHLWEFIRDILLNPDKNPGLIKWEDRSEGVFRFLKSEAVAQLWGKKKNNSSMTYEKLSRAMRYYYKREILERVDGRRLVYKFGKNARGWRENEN
# ETV3L = biological target: T4, ETV3L (UniProt Q6ZN32)
# T4 sequence: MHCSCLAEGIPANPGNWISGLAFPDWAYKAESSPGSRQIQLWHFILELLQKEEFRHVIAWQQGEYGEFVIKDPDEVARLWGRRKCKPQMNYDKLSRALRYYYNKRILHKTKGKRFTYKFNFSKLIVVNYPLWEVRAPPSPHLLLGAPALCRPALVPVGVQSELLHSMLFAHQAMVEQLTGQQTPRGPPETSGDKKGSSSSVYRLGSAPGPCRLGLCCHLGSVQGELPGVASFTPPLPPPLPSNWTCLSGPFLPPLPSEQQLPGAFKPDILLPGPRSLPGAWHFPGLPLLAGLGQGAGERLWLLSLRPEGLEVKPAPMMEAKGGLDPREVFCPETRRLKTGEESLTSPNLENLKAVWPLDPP
# SPIB = SPIB (UniProt Q01892)
Sequence,binding signal (FLI1),binding signal (ETV5),binding signal (ELF4),binding signal (ETV2),binding signal (EHF),binding signal (ETV3L),binding signal (SPIB)
CCTAAG,1.09,1.2,1.26,–,–,–,–
CTACAT,1.43,1.45,1.37,–,–,–,–
CAGCTC,0.909,0.966,–,–,–,–,–
CTAGCG,0.956,1.22,1.1,–,–,–,–
ACACTC,1.04,1.04,–,–,–,–,–
CCGCTC,1.53,1.46,–,–,–,–,–
TTGTTG,1.03,1.08,1.21,–,–,–,–
CCATCC,1.24,1.27,–,–,–,–,–
CTGATG,1.75,1.65,–,–,–,–,–
CCTCGA,1.33,1.27,–,–,–,–,–
ACTATT,1.29,1.22,1.3,–,–,–,–
ATTCAC,1.23,1.21,1.31,–,–,–,–
GCAGCT,0.999,1.08,–,–,–,–,–
ACACCG,1,0.917,–,–,–,–,–
AATTCG,1.29,1.31,–,–,–,–,–
TGACAA,1.18,1.22,–,–,–,–,–
CCGGCG,0.918,0.939,0.935,–,–,–,–
CCCCGA,1.23,1.14,–,–,–,–,–
TCAAAT,1.04,1.09,0.997,–,–,–,–
ATTACA,1.14,1.07,–,–,–,–,–
GCTGGT,1.29,0.968,1.11,–,–,–,–
GATATT,1.11,1.14,1.12,–,–,–,–
CGCCTG,1.11,1.18,–,–,–,–,–
AAAATA,1.17,1.17,1.17,–,–,–,–

Sequence,binding signal (FLI1),binding signal (ETV5),binding signal (ELF4),binding signal (ETV2),binding signal (EHF),binding signal (ETV3L),binding signal (SPIB)
TTCCCA,1.18,1.29,–,–,–,–,–
GTAGCA,1.03,1.13,1.07,1.11,–,–,–
CCACTC,1.23,1.23,1.29,–,–,–,–
AGTCCT,1,1.05,0.987,–,–,–,–
CTGTCT,1.35,1.4,–,–,–,–,–
GCTCTA,1.17,1.21,1.21,–,–,–,–
CTCGGT,1.12,1.1,–,–,–,–,–
TGATCG,1,1.03,1.05,0.961,–,–,–
ACGTCC,1.59,1.65,–,–,–,–,–
GCACAA,1.1,1.07,–,–,–,–,–
AATATA,1.28,1.33,–,–,–,–,–
CTATAG,1.09,1.1,–,–,–,–,–
TGATAA,0.964,0.972,1.07,–,–,–,–
AACTAG,1.06,1.15,–,–,–,–,–
CATCTC,1.42,1.29,1.26,–,–,–,–
CCCATA,1.23,1.23,–,–,–,–,–
CCACCA,0.997,0.989,0.996,0.996,–,–,–
ATCCGT,0.983,1.05,0.903,0.917,0.987,0.971,–
TCGAGG,0.851,0.792,0.788,0.847,0.794,0.847,0.773
GAATCA,0.901,0.917,0.86,0.951,0.973,0.938,–
GCCGGA,0.985,1.16,0.928,0.907,1.08,0.993,1.01
ATAACG,0.964,0.96,0.945,0.982,0.979,0.941,–
CTTGGC,1.19,1.1,1.21,0.997,–,–,–
GATCTG,0.903,0.911,0.941,0.876,0.98,0.95,0.902

Sequence,binding signal (FLI1),binding signal (ETV5),binding signal (ELF4),binding signal (ETV2),binding signal (EHF),binding signal (ETV3L),binding signal (SPIB)
AGAATC,0.921,0.978,0.928,0.941,0.845,0.969,0.979
GCATTA,0.773,0.813,0.898,0.836,0.902,0.891,0.825
TTAGAG,0.941,0.823,0.924,1.01,0.882,0.927,0.891
TAAGAC,0.882,0.923,0.919,0.93,0.817,0.823,0.844
CGAAGA,0.799,0.811,0.795,0.931,0.726,0.8,0.745
CCAAAG,0.896,0.911,0.964,0.944,0.933,0.96,–
GAGCTT,0.958,1.04,0.891,0.948,0.987,0.89,0.913
GCGACA,0.941,0.947,0.938,0.914,0.899,1.04,0.98
TCGAAA,0.978,0.972,0.977,0.936,0.978,0.954,0.88
ACCGGT,0.931,0.913,0.926,0.769,0.839,0.948,0.956
TGTAAG,0.996,1.08,0.996,0.906,–,1.03,–
GGAATA,0.99,0.89,0.874,0.947,0.931,0.888,0.923
AGGGAA,0.901,0.989,0.864,0.914,–,0.992,–
GTTGGC,0.985,0.896,0.853,0.912,0.869,0.923,0.867
GTGATG,0.94,0.893,0.991,0.883,0.85,0.892,–
GTATTG,0.97,0.921,0.968,0.783,0.992,1.01,–
TCGTCC,1.1,1.01,0.994,0.968,–,0.988,–
TCAGAC,0.91,0.808,0.919,0.943,0.89,0.932,0.834
ACGCCA,0.88,0.887,0.988,0.764,0.847,0.961,0.916
CTGTGG,0.961,0.886,0.897,0.942,0.905,0.928,0.893
AGTTTG,0.989,0.901,0.915,0.942,0.878,0.933,0.942
GTGGTA,0.954,0.939,0.89,0.915,0.924,0.894,–
TCCAGT,0.648,0.635,0.684,0.846,0.645,0.616,0.699
GTACAG,0.97,0.924,0.995,0.896,0.921,0.937,–

# Single values from above:
# Value for GGAATA under binding signal (ETV3L): 0.888
# Value for CTGTGG under binding signal (ELF4): 0.897
# Value for TGTAAG under binding signal (ETV5): 1.08
